Article PMC12827253
Results are given in words; binding and its absence hold for the method and conditions named. In cells and extracts the contact can be indirect. A result given as binding can be weak or reduced; the word gives no strength. Where a sequence is shown, tags or fusion partners need not be part of it.

Molecular target: Flag-tagged RIPK3 ΔRHIM mutant
Assay: co-IP; anti-FLAG agarose beads, 4 h at 4 °C, 5 washes in lysis buffer (120 mM NaCl, 2 mM KCl, 10% glycerol, 2 mM EDTA, 1% Triton X-100, 30 mM Tris-HCl pH 7.4); lysates of transfected HEK293T cells, with or without GADD45β (transfected or Dox-induced); also NEMO-KO cells (Supplementary Fig. S2b)

binding: binds
B1: HA-tagged GADD45β (protein, UniProt P22339 1-160)
chain: MTLEELVASDNAVQKMQAVTAAVEQLLVAAQRQDRLTVGVYEAAKLMNVDPDSVVLCLLAIDEEEEDDIALQIHFTLIQSFCCDNDIDIVRVSGMQRLAQLLGEPAETLGTTEARDLHCLLVTNCHTDSWKSQGLVEVASYCEESRGNNQWVPYISLEER
